Our source for the binding signal values is publication PMC7862700.

By UniProt entry, the sequences of proteins in these tests, tags left out. Where a name states a change or a piece, a line headed by the entry shows the natural chain unless it says otherwise.
UniProt P32519: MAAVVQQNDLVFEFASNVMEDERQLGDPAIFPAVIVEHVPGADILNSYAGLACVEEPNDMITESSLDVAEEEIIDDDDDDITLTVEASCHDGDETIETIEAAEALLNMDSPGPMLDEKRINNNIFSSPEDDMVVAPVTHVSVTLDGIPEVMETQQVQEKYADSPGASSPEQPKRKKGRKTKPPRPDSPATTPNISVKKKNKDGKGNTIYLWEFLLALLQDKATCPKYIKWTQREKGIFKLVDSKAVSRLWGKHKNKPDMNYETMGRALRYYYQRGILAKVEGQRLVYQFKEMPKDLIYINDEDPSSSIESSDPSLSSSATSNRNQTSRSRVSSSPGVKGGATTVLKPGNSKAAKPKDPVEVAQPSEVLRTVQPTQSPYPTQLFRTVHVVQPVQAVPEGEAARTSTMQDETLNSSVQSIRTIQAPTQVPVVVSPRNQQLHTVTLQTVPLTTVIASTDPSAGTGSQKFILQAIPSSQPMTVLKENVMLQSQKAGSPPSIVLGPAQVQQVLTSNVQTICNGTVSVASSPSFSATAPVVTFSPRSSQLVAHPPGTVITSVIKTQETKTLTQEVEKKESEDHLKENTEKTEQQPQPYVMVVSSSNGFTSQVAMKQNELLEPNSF
UniProt P50549: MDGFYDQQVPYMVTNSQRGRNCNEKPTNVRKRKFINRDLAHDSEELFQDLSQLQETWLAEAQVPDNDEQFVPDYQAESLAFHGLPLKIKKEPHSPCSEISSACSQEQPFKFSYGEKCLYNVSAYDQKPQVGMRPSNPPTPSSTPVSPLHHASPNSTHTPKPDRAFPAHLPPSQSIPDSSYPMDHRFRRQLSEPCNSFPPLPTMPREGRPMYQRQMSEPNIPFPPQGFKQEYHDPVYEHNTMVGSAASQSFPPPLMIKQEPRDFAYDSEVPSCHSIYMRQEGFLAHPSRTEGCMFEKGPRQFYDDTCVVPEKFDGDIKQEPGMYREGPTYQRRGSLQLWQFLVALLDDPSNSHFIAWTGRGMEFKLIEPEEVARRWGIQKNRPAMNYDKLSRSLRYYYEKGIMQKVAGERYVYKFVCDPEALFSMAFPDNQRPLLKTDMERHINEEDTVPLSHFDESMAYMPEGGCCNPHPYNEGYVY

Holding throughout (assay): DAPPL (digital affinity profiling via proximity ligation, sequencing)
What all share (conditions): 10 mM Tris-HCl pH 7.5, 50 mM NaCl, 1 mM DTT, 4% glycerol, room temperature, 30 min; GST-TFs on glutathione beads, 16-mer random dsDNA library, 0.1% …; high values mean tight binding; double strand, one strand shown; scale: fold enrichment (6-mer frequency, TF over GST control)

The target of one experiment is T1, ERG (UniProt P11308).
T1 sequence: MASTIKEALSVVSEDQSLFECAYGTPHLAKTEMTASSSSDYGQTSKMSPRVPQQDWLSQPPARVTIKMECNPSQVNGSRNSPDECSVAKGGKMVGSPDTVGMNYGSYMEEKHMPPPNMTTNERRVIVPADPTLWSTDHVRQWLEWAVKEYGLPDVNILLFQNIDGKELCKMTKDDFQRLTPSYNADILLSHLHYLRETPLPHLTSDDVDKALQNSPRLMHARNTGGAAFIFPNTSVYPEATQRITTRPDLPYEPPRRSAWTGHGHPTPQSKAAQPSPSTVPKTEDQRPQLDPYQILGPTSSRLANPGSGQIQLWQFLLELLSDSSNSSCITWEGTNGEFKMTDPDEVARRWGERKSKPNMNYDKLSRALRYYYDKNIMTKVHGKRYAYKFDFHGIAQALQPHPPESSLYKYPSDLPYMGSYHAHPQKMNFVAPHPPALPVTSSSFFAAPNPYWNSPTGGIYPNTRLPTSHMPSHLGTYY

The target of the next experiment is ELF1 (UniProt P32519).
The next experiment deals with T2, ELK4 (UniProt P28324-2).
T2 sequence: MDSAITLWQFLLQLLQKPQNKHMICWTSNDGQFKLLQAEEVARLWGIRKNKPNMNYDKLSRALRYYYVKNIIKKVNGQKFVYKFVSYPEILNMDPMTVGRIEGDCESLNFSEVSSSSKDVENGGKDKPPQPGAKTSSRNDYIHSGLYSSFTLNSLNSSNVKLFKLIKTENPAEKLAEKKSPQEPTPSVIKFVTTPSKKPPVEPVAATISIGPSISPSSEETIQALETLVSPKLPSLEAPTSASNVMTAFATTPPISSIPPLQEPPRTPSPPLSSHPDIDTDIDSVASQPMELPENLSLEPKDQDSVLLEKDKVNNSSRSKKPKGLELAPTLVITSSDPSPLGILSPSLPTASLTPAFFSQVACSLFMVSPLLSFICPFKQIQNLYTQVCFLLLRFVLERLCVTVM

Another experiment has as its target T3, ETV4 (UniProt P43268).
T3 sequence: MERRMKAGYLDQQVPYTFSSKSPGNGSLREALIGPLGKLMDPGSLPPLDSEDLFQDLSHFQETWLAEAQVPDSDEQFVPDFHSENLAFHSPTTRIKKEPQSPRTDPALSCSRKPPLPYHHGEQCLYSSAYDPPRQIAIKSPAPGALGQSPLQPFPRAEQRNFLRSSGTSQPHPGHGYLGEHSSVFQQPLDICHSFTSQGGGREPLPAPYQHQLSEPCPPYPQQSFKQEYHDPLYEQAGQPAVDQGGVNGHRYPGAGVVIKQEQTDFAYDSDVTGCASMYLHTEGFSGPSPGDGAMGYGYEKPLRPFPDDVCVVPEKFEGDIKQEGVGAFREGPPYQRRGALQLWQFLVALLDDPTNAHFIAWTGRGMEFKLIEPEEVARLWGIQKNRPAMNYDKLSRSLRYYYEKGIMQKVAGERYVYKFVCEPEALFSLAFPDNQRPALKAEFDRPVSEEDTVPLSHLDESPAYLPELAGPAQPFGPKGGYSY

In the next experiment the target is ETV1 (UniProt P50549).
The next experiment concerns the target T4, ERF (UniProt P50548).
T4 sequence: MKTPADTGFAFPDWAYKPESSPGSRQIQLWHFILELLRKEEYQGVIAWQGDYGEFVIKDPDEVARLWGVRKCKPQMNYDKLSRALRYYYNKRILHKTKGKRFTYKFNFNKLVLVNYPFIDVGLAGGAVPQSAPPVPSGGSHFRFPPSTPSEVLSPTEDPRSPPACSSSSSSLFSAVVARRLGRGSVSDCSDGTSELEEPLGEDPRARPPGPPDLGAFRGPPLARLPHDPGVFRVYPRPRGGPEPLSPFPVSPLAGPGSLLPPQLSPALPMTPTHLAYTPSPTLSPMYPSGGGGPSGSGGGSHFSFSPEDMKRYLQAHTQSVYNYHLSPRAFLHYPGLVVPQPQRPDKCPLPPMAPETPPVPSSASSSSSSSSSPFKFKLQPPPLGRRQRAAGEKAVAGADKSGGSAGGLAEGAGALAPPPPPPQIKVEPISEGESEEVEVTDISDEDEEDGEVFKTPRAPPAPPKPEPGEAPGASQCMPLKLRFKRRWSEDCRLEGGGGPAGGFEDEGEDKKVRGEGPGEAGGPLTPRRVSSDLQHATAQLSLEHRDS

The entries are a selection whose mix differs from that of the whole data set. For part of these data: At the low end of the ranking, values are background and their order means little. Some of the results follow. For part of these data: Construct or isoform of the protein are uncertain.

For the sequence ACCGCG, the binding signal with ERG came out at 0.893; in the experiment with ELF1, 0.874; with ELK4, 0.918; with ETV4, 0.867; with ETV1 it was 0.881; with ERF, 0.914.
In the case of GCGGAC, the binding signal with ERG turned out to be 0.711; with ELF1, 0.704; in the experiment with ELK4, 0.656; in the experiment with ETV4, 0.656; with ETV1 it was 0.712; in the experiment with ERF, 0.635.
Take GAACGG: the binding signal with ERG came to 0.628; in the experiment with ELF1, 0.549; with ELK4, 0.637; in the experiment with ETV4, 0.615; with ETV1, 0.645; in the experiment with ERF, 0.567.
Take GATCGT: the binding signal with ERG came to 0.438; with ELF1, 0.442; with ELK4, 0.423; in the experiment with ETV4, 0.427; with ETV1, 0.467; with ERF, 0.434.
As for TCGGGT, the binding signal with ERG turned out to be 0.607; in the experiment with ELF1, 0.558; with ELK4, 0.54; with ETV4 it was 0.594; with ETV1, 0.567; with ERF it was 0.626.
TGAGGA: the binding signal in the experiment with ERG was determined as 0.678; in the experiment with ELF1 it was 0.691; with ELK4, 0.671; in the experiment with ETV4, 0.645; with ETV1 it was 0.677; with ERF it was 0.623.
On to GCATCA, for which the binding signal is 0.744 in the experiment with ERG; 0.782 in the experiment with ELF1; 0.778 with ELK4; 0.761 with ETV4; 0.74 with ETV1; 0.762 with ERF.
For AAGAGG, the binding signal was 0.872 with ERG; 0.861 with ELF1; 0.829 with ELK4; 0.842 with ETV4; 0.945 with ETV1; 0.862 with ERF.
GGTACG: the binding signal with ERG worked out at 0.793; with ELF1, 0.849; with ELK4, 0.734; in the experiment with ETV4, 0.84; with ETV1, 0.775; in the experiment with ERF, 0.805.
As to GCGTCG, the binding signal with ERG stood at 0.826; in the experiment with ELF1 it was 0.73; with ELK4, 0.672; with ETV4, 0.719; with ETV1, 0.785; with ERF it was 0.733.
On to AGTCGC, for which the binding signal in the experiment with ERG stood at 0.542; with ELF1 it was 0.523; in the experiment with ELK4, 0.524; with ETV4, 0.503; with ETV1, 0.504; with ERF it was 0.453.
For CAGAGG, the binding signal with ERG is 0.662; in the experiment with ELF1, 0.638; with ELK4, 0.623; with ETV4 it was 0.633; with ETV1, 0.617; in the experiment with ERF, 0.652.
Consider GGGACC, for which the binding signal with ERG was 0.667; with ELF1, 0.69; with ELK4, 0.732; with ETV4 it was 0.708; with ETV1 it was 0.684; with ERF it was 0.656.
In the case of TTGGAG, the binding signal with ERG is 0.468; with ELF1, 0.53; with ELK4, 0.515; with ETV4, 0.499; with ETV1 it was 0.474; with ERF, 0.486.
Take CGGCCA: the binding signal in the experiment with ERG came to 0.801; with ELF1 it was 0.797; with ELK4, 0.858; in the experiment with ETV4, 0.798; with ETV1, 0.845; with ERF, 0.816.
Regarding CGTGGA, the binding signal with ERG was 0.525; with ELF1, 0.519; with ELK4, 0.672; in the experiment with ETV4 it was 0.537; with ETV1, 0.612; with ERF, 0.58.
In the case of CAGGGC, the binding signal with ERG is 0.769; with ELF1, 0.739; in the experiment with ELK4 it was 0.864; in the experiment with ETV4, 0.802; with ETV1, 0.796; with ERF it was 0.816.
On to TGGGGA, for which the binding signal with ERG stood at 0.785; with ELF1, 0.822; with ELK4, 0.782; in the experiment with ETV4, 0.866; with ETV1, 0.814; with ERF, 0.799.
Turning to GGACCG, the binding signal in the experiment with ERG stood at 0.912; in the experiment with ELF1, 0.851; in the experiment with ELK4, 0.854; with ETV4, 0.891; with ETV1, 0.84; in the experiment with ERF it was 0.784.
For the sequence GATTGA, the binding signal in the experiment with ERG was 0.995; in the experiment with ELF1, 0.934; with ELK4, 0.901; in the experiment with ETV4 it was 0.944; in the experiment with ETV1, 0.956; in the experiment with ERF, 0.984.
GATCAG: the binding signal in the experiment with ERG worked out at 0.67; with ELF1, 0.749; in the experiment with ELK4, 0.749; with ETV4, 0.734; with ETV1 it was 0.759; with ERF, 0.754.
With GTTAGG, the binding signal amounted to 0.839 with ERG; 0.824 with ELF1; 0.974 with ELK4; 0.818 with ETV4; 0.767 in the experiment with ETV1; 0.79 with ERF.
In the case of AGATCG, the binding signal turned out to be 0.465 in the experiment with ERG; 0.49 with ELF1; 0.469 with ELK4; 0.477 with ETV4; 0.43 with ETV1; 0.513 in the experiment with ERF.
For GCACCA, the binding signal was 0.861 in the experiment with ERG; 0.85 in the experiment with ELF1; 0.913 with ELK4; 0.829 in the experiment with ETV4; 0.827 with ETV1; 0.919 with ERF.
As to TGCGGG, the binding signal with ERG is 0.744; in the experiment with ELF1, 0.869; with ELK4 it was 0.725; with ETV4, 0.756; in the experiment with ETV1, 0.798; with ERF it was 0.784.
As for GCGGGA, the binding signal in the experiment with ERG is 0.38; in the experiment with ELF1 it was 0.35; in the experiment with ELK4, 0.364; in the experiment with ETV4 it was 0.347; with ETV1 it was 0.386; in the experiment with ERF, 0.347.
GCCGCG: the binding signal with ERG stood at 0.827; in the experiment with ELF1, 0.786; in the experiment with ELK4, 0.826; with ETV4, 0.954; with ETV1, 0.759; in the experiment with ERF, 0.793.
Regarding GGTCAA, the binding signal in the experiment with ERG turned out to be 0.922; with ELF1, 0.867; in the experiment with ELK4, 0.941; with ETV4, 0.897; with ETV1 it was 0.843; in the experiment with ERF it was 0.915.
As to CAGTTG, the binding signal was found to be 0.476 with ERG; 0.465 in the experiment with ELF1; 0.565 with ELK4; 0.477 with ETV4; 0.475 in the experiment with ETV1; 0.436 with ERF.
With AGCCAA, the binding signal with ERG amounted to 0.882; in the experiment with ELF1, 0.933; with ELK4, 0.883; in the experiment with ETV4, 0.881; in the experiment with ETV1, 0.884; with ERF, 0.95.
